We go through one substance from PMC9023467.

Sequences of proteins named here, by UniProt entry; tags and fusion partners are left off. Residues count along the entry.
UniProt P37231, residues 29-505: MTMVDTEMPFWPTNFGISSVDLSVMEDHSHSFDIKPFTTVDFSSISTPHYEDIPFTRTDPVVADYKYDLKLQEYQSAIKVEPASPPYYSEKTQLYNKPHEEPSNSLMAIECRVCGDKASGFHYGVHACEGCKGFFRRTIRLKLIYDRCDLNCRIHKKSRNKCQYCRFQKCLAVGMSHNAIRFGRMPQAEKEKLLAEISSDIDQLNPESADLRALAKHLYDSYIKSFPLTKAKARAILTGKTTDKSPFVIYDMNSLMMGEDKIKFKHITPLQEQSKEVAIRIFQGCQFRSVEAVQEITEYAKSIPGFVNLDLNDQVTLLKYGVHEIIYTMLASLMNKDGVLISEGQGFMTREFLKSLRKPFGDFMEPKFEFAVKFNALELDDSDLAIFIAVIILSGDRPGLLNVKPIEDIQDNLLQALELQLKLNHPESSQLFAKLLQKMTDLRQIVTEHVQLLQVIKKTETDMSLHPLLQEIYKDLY

This assay deals with T1, SFB-USP22 (UniProt Q9UPT9).
T1 sequence: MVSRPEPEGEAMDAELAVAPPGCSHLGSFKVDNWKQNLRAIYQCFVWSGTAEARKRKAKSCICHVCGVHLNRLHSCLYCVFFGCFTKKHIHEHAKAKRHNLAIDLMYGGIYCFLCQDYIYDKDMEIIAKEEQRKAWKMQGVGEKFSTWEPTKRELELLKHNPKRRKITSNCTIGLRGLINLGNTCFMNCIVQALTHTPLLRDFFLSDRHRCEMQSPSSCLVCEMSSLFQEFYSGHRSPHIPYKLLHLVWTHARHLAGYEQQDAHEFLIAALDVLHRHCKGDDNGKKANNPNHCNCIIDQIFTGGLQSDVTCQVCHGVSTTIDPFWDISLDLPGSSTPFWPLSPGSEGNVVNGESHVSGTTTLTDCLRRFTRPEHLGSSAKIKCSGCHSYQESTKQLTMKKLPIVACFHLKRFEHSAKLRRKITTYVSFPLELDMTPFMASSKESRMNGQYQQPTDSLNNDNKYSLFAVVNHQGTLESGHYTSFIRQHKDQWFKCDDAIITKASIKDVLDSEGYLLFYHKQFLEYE
Description: affinity purification with mass spectrometry; tandem affinity purification of SFB-USP22 from HEK293T lysate (NETN buffer): streptavidin-conjugated beads, elution with biotin, then S protein beads; bands from SDS-PAGE analysed by mass spectrometry; control vector in parallel.

Results are given in words; binding and its absence hold for the method and conditions named. Binding seen in cells or lysates may run through a third protein. Here binding means that the protein was enriched with, or labelled near, the bait; the list need not be complete.

Take “peroxisome proliferator-activated receptor gamma (PPARγ), endogenous (from UniProt P37231-2 1-477)”: the binding entry is given as “binds”.
